Laboratory results: patent US4923965A, “Tripeptides of N^3 -4-methoxyfumaryl-L-2,3-diaminopropanoic acid” (Politechnika Gdanska, priority 1988, dated 1990)
Structures can show the parent of a compound that is named as a salt. Part of at least one peptide drawing is inferred or uncertain, most often the ends.

Legend:
Candida albicans (n=50) = assay: in vitro MIC by serial dilutions on solid medium, C. albicans strains isolated from patients; format: cell-based; conditions: 48 h - 37° C., 50 strains
Candida albicans 162 = assay: model of generalised candidiosis with the Swiss mouse; format: in vivo
[1] = test system: other species of the genus Candida (Candida spp., n=117); assay: in vitro MIC by serial dilutions on solid medium, other Candida species isolated from patients; format: cell-based; conditions: 48 h - 37° C., 117 strains
[2] = test system: the entire genus Candida (n=167); assay: in vitro MIC by serial dilutions on solid medium, entire genus Candida; format: cell-based; conditions: 48 h - 37° C., Total 167 strains

CCC[C@H](NC(=O)[C@@H](N)CCSC)C(=O)N[C@@H](CNC(=O)/C=C/C(=O)OC)C(=O)O [XVI, N^2 -L-methionyl-L-norvalyl, N^3-4-methoxyfumaryl-L-2,3-diaminopropanoic hydrochloride]
GMIC (Candida albicans (n=50); YNB w/O + AN): 3.3 mg/L
MIC50 (Candida albicans (n=50); YNB w/O + AN): 0.6 µg/mL
MIC90 (Candida albicans (n=50); YNB w/O + AN): 149.8 µg/mL
MIC value range (Candida albicans (n=50); YNB w/O + AN): 0.006 to 100 µg/mL
GMIC (Candida albicans (n=50); YNB): 39.5 mg/L
MIC50 (Candida albicans (n=50); YNB): 120.1 µg/mL
MIC90 (Candida albicans (n=50); YNB): 180.6 µg/mL
MIC value range (Candida albicans (n=50); YNB): 0.006 to 100 µg/mL
protective dose, PD50 (Candida albicans 162; 5-9 days of observation, mice infected intravenously, 2×10^7 cfu per 1 gm of body weight): 0.374 mg/kg
curative dose, CD50 (Candida albicans 162; 9 days of observation): 0.499 mg/kg
curative dose, CD50 (Candida albicans 162; 16 days of observation): 1.062 mg/kg
number of the cells of Candida albicans in the kidneys (Candida albicans 162; dose of 10×CD50, i.e. 4.99 mg/kg, 6th day, compared with a control group): markedly reduced
GMIC ([1]; YNB w/O + AN): 6.9 mg/L
MIC50 ([1]; YNB w/O + AN): 2.9 µg/mL
MIC90 ([1]; YNB w/O + AN): 162.5 µg/mL
MIC value range ([1]; YNB w/O + AN): 0.006 to 100 µg/mL
GMIC ([1]; YNB): 68.9 mg/L
MIC50 ([1]; YNB): 127.5 µg/mL
MIC90 ([1]; YNB): 182.8 µg/mL
MIC value range ([1]; YNB): 0.006 to 100 µg/mL
GMIC ([2]; YNB w/O + AN): 5.5 mg/L
MIC50 ([2]; YNB w/O + AN): 1.4 µg/mL
MIC90 ([2]; YNB w/O + AN): 159.4 µg/mL
MIC value range ([2]; YNB w/O + AN): 0.006 to 100 µg/mL
GMIC ([2]; YNB): 58.3 mg/L
MIC50 ([2]; YNB): 125.4 µg/mL
MIC90 ([2]; YNB): 182.2 µg/mL
MIC value range ([2]; YNB): 0.006 to 100 µg/mL
